# Measurements reported in PubChem BioAssay AID1224828 (NIAID, 2016)
# Aim: 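Knock-downs that increase or decrease LPS-induced p65 nuclear translocation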 (primary screen)
# Cell system: mouse RAW264.7 G9 macrophage reporter cells (GFP-p65, Tnf promoter-mCherry)
# Knock-down reagent: siRNA pool against mouse genes, 100 nM
# Time to read-out: 2 days siRNA transfection, then 40 min LPS before fixation
# Treatment: LPS (Salmonella minnesota R595) at 10 ng/ml
# Read-out: 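Microscopy ratio of nuclear to perinuclear-ring GFP-p65 signal, scaled to the plate median; gene score is the average of two replicate robust z-scores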
# Reading the numbers: p65 translocation robust z-score: higher = more nuclear NF-kappaB p65 after LPS than the plate median; nuclear/cytoplasmic p65 ratio: higher = more nuclear NF-kappaB p65
# Rule for the call: 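Called active when z exceeds 3.3 or falls under -1.56 (median of Tlr4 controls), giving activity score of at least 50; no calls for control wells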
# Meaning of the calls: active = hit (p65 shift raised or lowered); inactive = no clear change
# The deposit covers about 17,000 reagents; below is an unselected part. 762 of them (4.5%) were called active. 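Active calls include both raised and lowered p65 entry, mostly lowered; wells with fewer than 50 cells lack a z-score.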 Raw values vary from plate to plate and are shown uncorrected.
target gene,p65 translocation robust z-score,"nuclear/cytoplasmic p65 ratio, rep 1","nuclear/cytoplasmic p65 ratio, rep 2",low cell count flag,call
"Tap1 (transporter 1, ATP-binding cassette, sub-family B (MDR/TAP))",-1.26,1.31,1.37,enough cells to score,inactive
"Clec2g (C-type lectin domain family 2, member g)",0.99,1.61,1.52,enough cells to score,inactive
Tfap4 (transcription factor AP4),-1.85,1.34,1.18,enough cells to score,active
Agt (angiotensinogen),0.2,1.65,1.65,enough cells to score,inactive
Smim8 (small integral membrane protein 8),0.29,1.39,1.35,enough cells to score,inactive
Agrp (agouti related neuropeptide),-0.6,1.54,1.52,enough cells to score,inactive
"Psmd5 (proteasome (prosome, macropain) 26S subunit, non-ATPase, 5)",-0.32,1.46,1.36,enough cells to score,inactive
Smyd4 (SET and MYND domain containing 4),,1.37,1.37,fewer than 50 cells per well; well left out of scoring,inactive
Tex2 (testis expressed gene 2),1.15,1.47,1.36,enough cells to score,inactive
Tfe3 (transcription factor E3),0.58,1.63,1.57,enough cells to score,inactive
Slc9d1,-0.06,1.43,1.57,enough cells to score,inactive
"Nfe2 (nuclear factor, erythroid derived 2)",-0.41,1.31,1.36,enough cells to score,inactive
Pi15 (peptidase inhibitor 15),0.39,1.47,1.3,enough cells to score,inactive
Prrc1 (proline-rich coiled-coil 1),,1.02,1.1,fewer than 50 cells per well; well left out of scoring,inactive
"Lck (lck proto-oncogene, Src family tyrosine kinase)",0.24,1.76,1.41,enough cells to score,inactive
Wdr17 (WD repeat domain 17),0.16,1.47,1.24,enough cells to score,inactive
Fbxo31 (F-box protein 31),0.58,1.63,1.43,enough cells to score,inactive
"Magoh (mago homolog, exon junction complex core component)",,1.64,1.65,fewer than 50 cells per well; well left out of scoring,inactive
Ptdss1 (phosphatidylserine synthase 1),-0.17,1.36,1.39,enough cells to score,inactive
Anp32b (acidic nuclear phosphoprotein 32 family member B),1.13,1.68,1.96,enough cells to score,inactive
Ppat (phosphoribosyl pyrophosphate amidotransferase),0.42,1.61,1.41,enough cells to score,inactive
Or13a22 (olfactory receptor family 13 subfamily A member 22),-0.62,1.33,1.22,enough cells to score,inactive
Pramel13 (PRAME like 13),-0.45,1.5,1.59,enough cells to score,inactive
"H1f6 (H1.6 linker histone, cluster member)",-0.35,1.44,1.63,enough cells to score,inactive

Laid out differently: 3 of the entries above.
Fbxo31 (F-box protein 31) → p65 translocation robust z-score = 0.58; nuclear/cytoplasmic p65 ratio, rep 1 = 1.63; nuclear/cytoplasmic p65 ratio, rep 2 = 1.43; low cell count flag = enough cells to score; call = inactive
Magoh (mago homolog, exon junction complex core component) → nuclear/cytoplasmic p65 ratio, rep 1 = 1.64; nuclear/cytoplasmic p65 ratio, rep 2 = 1.65; low cell count flag = fewer than 50 cells per well; well left out of scoring; call = inactive
Ptdss1 (phosphatidylserine synthase 1) → p65 translocation robust z-score = -0.17; nuclear/cytoplasmic p65 ratio, rep 1 = 1.36; nuclear/cytoplasmic p65 ratio, rep 2 = 1.39; low cell count flag = enough cells to score; call = inactive
